B1: Synthesized biotinylated peptide P5, … (Bio) (peptide)
peptide: GDGSGTSFLLTGK
modifications: C-terminal Lys-biotin
B2: Synthesized biotinylated peptide P4, … (Bio) (peptide)
peptide: NTDGSTDYGLLQLK
modifications: C-terminal Lys-biotin
B3: Synthesized biotinylated peptide P1, … (Bio) (peptide)
peptide: GASDGSTDYGLLQLGGSRK
modifications: C-terminal Lys-biotin

Sequences of proteins named here, by UniProt entry; tags and fusion partners are left off.
UniProt P02687: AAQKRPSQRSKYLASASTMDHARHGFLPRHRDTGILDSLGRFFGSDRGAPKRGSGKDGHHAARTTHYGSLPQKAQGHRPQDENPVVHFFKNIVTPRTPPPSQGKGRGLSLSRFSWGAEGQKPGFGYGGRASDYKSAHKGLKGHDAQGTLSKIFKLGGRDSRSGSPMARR

Results are given in words; binding and its absence hold for the method and conditions named.

The target of the test is T1, Bovine myelin basic protein (MBP) (bovine, UniProt P02687 1-169).
T1 construct: Myelin basic protein, bovine
In words: ELISA + other: WB (methods) or immunoprecipitation (results); synthetic peptides with C-terminal Lys-biotin tested for binding of MBP and LMP1; one grade a pair for the two assays; both purified.
On to B1, for which the binding result is “no binding”. For B2, the binding result is listed as “no binding”.

For B3, the binding entry was “no binding”.

For the origin of these results see paper PMC5498468, “Exposure to the Epstein–Barr Viral Antigen Latent Membrane Protein 1 Induces Myelin-Reactive Antibodies In Vivo” (Frontiers in Immunology, 2017).
